Several values for one entry are separate records, joined by “and”; a condition that tells them apart may be missing. Equal entries are not always repeated. The campaign covered roughly 390,000 compounds. About 4,000 (1%) were called active. The inconclusive results got no clear call from the source; some entries with a clear call stand among them for comparison. Calls come from the whole dose curve; as a rule, active = well fitted inhibition curve with a large enough effect; inconclusive = small, poorly fitted or top-dose-only effect, or another doubt; inactive = no such curve, though single readings can be large or run the other way. Potencies of inconclusive entries are doubtful fits and often do not repeat.
Molecular target: DNA polymerase iota (Homo sapiens) (UniProt Q9UNA4)
Test: qHTS for Inhibitors of Polymerase Iota
Conditions: Pol iota fluorescent replication assay, 10 min; series mostly up to 115 µM
Procedure, shortened: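 Pol iota at 10 nM preincubated 15 min with compounds at room temperature; reaction started with fluorescent substrate, 50 nM final. Fluorescence read kinetically at 0 and 10 min; buffer-only wells as negative control.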
Potency is the fitted concentration of half-maximal effect.

Protein sequences, listed by entry. Tags and fused reporters are not part of them. Lines headed by an entry give the natural chain unless they say otherwise; changes in a name come on top.
UniProt Q9UNA4: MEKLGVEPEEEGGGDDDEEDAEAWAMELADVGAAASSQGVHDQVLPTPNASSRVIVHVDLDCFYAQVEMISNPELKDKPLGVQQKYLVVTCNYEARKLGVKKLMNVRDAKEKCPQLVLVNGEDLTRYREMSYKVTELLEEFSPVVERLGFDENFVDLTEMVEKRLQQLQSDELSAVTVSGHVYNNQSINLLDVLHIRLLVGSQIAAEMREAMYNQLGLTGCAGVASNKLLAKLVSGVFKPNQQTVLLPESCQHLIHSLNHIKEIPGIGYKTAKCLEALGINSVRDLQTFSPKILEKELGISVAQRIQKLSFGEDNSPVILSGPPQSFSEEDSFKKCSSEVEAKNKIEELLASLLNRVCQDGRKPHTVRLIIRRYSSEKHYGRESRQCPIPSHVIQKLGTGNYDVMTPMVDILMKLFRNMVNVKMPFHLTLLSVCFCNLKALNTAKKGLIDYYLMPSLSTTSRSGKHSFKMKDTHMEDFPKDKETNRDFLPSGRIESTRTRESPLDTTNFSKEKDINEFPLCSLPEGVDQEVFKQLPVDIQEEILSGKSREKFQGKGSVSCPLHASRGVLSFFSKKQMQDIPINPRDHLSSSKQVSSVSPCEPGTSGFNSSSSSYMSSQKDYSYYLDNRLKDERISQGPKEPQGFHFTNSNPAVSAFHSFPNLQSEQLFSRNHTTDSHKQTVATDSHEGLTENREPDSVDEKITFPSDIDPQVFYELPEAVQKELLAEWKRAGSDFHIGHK

| Structure (SMILES) | Potency |
| --- | --- |
| COc1cc(OC)cc(C(=O)Nc2cccc(-c3cn4cccnc4n3)c2)c1 | inconclusive: 28.2 µM [inhibitor, partial curve, poor fit] |
| Cc1cc(C)n(-c2ccc(C(=O)Nc3sccc3C(N)=O)cc2)n1 | inconclusive: 14.1 µM [inhibitor, full curve, poor fit] |
| O=C1OC(c2ccccc2)=N/C1=C/c1cccc(OC(=O)c2cccs2)c1 | inactive |
| O=C(Nc1ccc(OC(F)(F)F)cc1)c1ccc2nccnc2c1 | inconclusive: 89.1 µM [inhibitor, partial curve, poor fit] |
| COc1ccc2cc3c(N)nn(C(=O)c4ccc(Cl)c([N+](=O)[O-])c4)c3nc2c1 | inconclusive: 3.55 µM [inhibitor, full curve, poor fit] |
| Cc1ccccc1CN1CCN(C(=O)c2cccc(F)c2)CC1 | inconclusive: 0.631 µM [inhibitor, full curve, poor fit] |
| COC(=O)C1=C(CCc2ccccc2)NC(=O)NC1c1ccc(Cl)cc1 (stereo not given) | inconclusive: 39.8 µM [inhibitor, single point] |
| c1cc2c(cc1Cn1cnnn1)OCO2 | inconclusive: 39.8 µM [inhibitor, single point] |
| CC(C)c1ccc(NC(=S)NNc2ccc(Cl)c(C(=O)O)c2)cc1 | active: 11.2 µM |
| Cc1ccc(NC(=S)N/N=C/c2ccc([N+](=O)[O-])s2)cc1 | inactive |
| Cc1ccc2c(Cl)cc(Cl)c(OCC(=O)NC(=O)NCc3ccco3)c2n1 | inconclusive: 56.2 µM [inhibitor, partial curve, poor fit] |
| O=C(CCN1CCCCC1)c1ccc2c(c1)OCCO2 | inconclusive: 8.91 µM [inhibitor, full curve, poor fit] |
| CCCOc1ccc(-c2csc3nc[nH]c(=O)c23)cc1 | inconclusive: 39.8 µM [inhibitor, single point] |
| CCc1ccccc1NC(=O)Cn1nnc(C(=O)NCc2cccs2)c1N | inconclusive: 44.7 µM [inhibitor, partial curve, poor fit] and inconclusive: 70.8 µM [inhibitor, single point] |
| COc1ccc(CN(CCC(C)C)S(=O)(=O)c2ccccc2Br)c(OC)c1 | inconclusive: 39.8 µM [inhibitor, single point] |
| O=C(/C=C/Nc1ccc(F)cc1F)c1ccco1 | inconclusive: 56.2 µM [inhibitor, partial curve, poor fit] |
| CCCN(CCC)C(=O)CSc1ncccc1C(=O)O | inconclusive: 89.1 µM [inhibitor, partial curve, poor fit] |
| CC(C)(C)OC(=O)CNC(=O)c1[nH]cnc1C(=O)NC1CCNCC1 | inconclusive: 14.1 µM [inhibitor, partial curve] |
| CCN(c1ccccc1)S(=O)(=O)c1ccc(F)c(C(=O)Nc2ccc(C)cc2)c1 | inactive |
| COc1ccc(Cc2nnc(NC(=O)C3CC(=O)N(c4ccc(OC)cc4)C3)s2)cc1 (stereo not given) | inconclusive: 4.47 µM [inhibitor, single point] |
| CCC(/C=C1\Sc2ccc(OC)cc2N1CCO)=C\c1sc2ccc(OC)cc2[n+]1CCO | inconclusive: 39.8 µM [inhibitor, partial curve, poor fit] |
| CC1=NN(c2ccc(Cl)cc2)C(=O)C1C(c1ccccc1O)c1c(C)[nH]n(-c2ccc(Cl)cc2)c1=O (stereo not given) | inconclusive: 1 µM [inhibitor, full curve, poor fit] |

| Structure (SMILES) | Potency |
| --- | --- |
| COc1cc(/C=C2\SC(=S)N(CC(=O)O)C2=O)ccc1OS(=O)(=O)c1ccc(C)cc1 | active: 14.1 µM |
| O=C1C2C3C=CC(CNS(=O)(=O)c4ccccc4)(O3)C2C(=O)N1c1ccc(Cl)cc1 (stereo not given) | inconclusive: 100 µM [inhibitor, single point] |
| N#Cc1c(NC(=O)c2ccc(Br)o2)n(-c2ccccc2)c2nc3ccccc3nc12 | active: 10 µM |
| CC(Oc1ccccc1)C(=O)OCC(=O)NC(=O)NCc1ccco1 (stereo not given) | inconclusive: 7.08 µM [inhibitor, partial curve, poor fit] |
| Cc1cc(C(=O)COC(=O)CNC(=O)c2ccco2)c(C)n1Cc1ccco1 | inconclusive: 79.4 µM [inhibitor, partial curve] |
| COc1ccc(/C=N\NC(=O)CNC(=O)C(c2ccccc2)c2ccccc2)cc1[N+](=O)[O-] | inactive |
| O=C(C[n+]1ccccc1)c1ccc(Cl)cc1 | inactive |
| CC[n+]1c(/C=C2\C=C(C)CC(C)(C)C2)sc2ccccc21 | inconclusive: 20 µM [inhibitor, full curve] |
| CCc1nc2c(sc3nc4c(cc32)COC(C)(C)C4)c(=O)n1Cc1ccco1 | inconclusive: 28.2 µM [inhibitor, partial curve, poor fit] |
| Cc1nnc(N(C)C(=O)c2cccnc2)s1 | inactive |
| COc1ccc(S(=O)(=O)NCc2ccc3c(c2)CCN3C(=O)c2ccc(C)cc2)cc1Cl | inactive |
| O=C(Cc1cccs1)Nc1ccccn1 | inconclusive: 28.2 µM [inhibitor, partial curve] |
| Cn1cc(-c2cc3n(n2)CCC(=O)N3CCCC(=O)Nc2ccc(F)cc2F)c2ccccc21 | inconclusive: 89.1 µM [inhibitor, partial curve] |
| Cc1ccc2oc(-c3ccc(C)c(NC(=O)COc4ccccc4C)c3)nc2c1 | inactive |
| CC1=Nc2cccc3cccc(c23)N1 | inconclusive: 11.2 µM [inhibitor, partial curve, poor fit] |
| COc1cccc(C2C(C(=O)c3sc(C)nc3C)=C(O)C(=O)N2CCN2CCOCC2)c1 (stereo not given) | inconclusive: 89.1 µM [inhibitor, partial curve, poor fit] |
| CCCCn1cnc2c(Sc3c([N+](=O)[O-])ncn3C)nc(N)nc21 | inconclusive: 20 µM [inhibitor, partial curve, poor fit] |
| CCC(C)Sc1cccc(-c2nc3ccc(Cl)cn3c2NCc2ccccc2)c1 (stereo not given) | inconclusive: 35.5 µM [inhibitor, single point] |
| CC(=O)C1=C(O)C(=O)N(Cc2ccccc2)C1c1cccs1 (stereo not given) | inconclusive: 12.6 µM [inhibitor, full curve, poor fit] |
| COC(=O)c1ccccc1NC(=O)CSc1nc(O)c(-c2ccccc2)c(=O)[nH]1 | inactive |
| O=C(CSc1n[nH]c(-c2cccs2)n1)N1CCN(S(=O)(=O)c2ccc3ccccc3c2)CC1 | inconclusive: 39.8 µM [inhibitor, single point] |
| COCCNC(=O)c1cc(-c2ccccc2C)nn1CC1CC(c2cccnc2)=NO1 (stereo not given) | inconclusive: 35.5 µM [inhibitor, partial curve, poor fit] |

| Structure (SMILES) | Potency |
| --- | --- |
| COc1cc2c(-c3ccc(C)cc3)nc3c(c(C)nn3-c3ccccc3)c2cc1OC | inactive |
| N#C/C(=C\c1ccccc1)C(=O)Nc1sc2c(c1C(N)=O)CCC2 | inconclusive: 70.8 µM [inhibitor, partial curve, poor fit] |
| CC1(C)NC(=O)N(Cc2cc(=O)n3ccsc3n2)C1=O | inconclusive: 44.7 µM [inhibitor, partial curve, poor fit] |
| CCN1C(=O)[C@@H]2[C@H](C1=O)[C@@H]1C(=O)Nc3ccccc3C(=O)N1[C@@H]2c1ccc(Br)cc1 | inconclusive: 39.8 µM [inhibitor, single point] |
| N#Cc1c(NC(=O)c2ccc(-c3ccccc3[N+](=O)[O-])o2)sc2c1CCCC2 | inconclusive: 11.2 µM [inhibitor, partial curve, poor fit] |
| O=[N+]([O-])c1ccccc1S(=O)(=O)N1CCN(S(=O)(=O)c2ccc3c(c2)OCCO3)CC1 | inactive |
| CCCCCCCN1C(Nc2ccccc2)=NC[C@@H]1Cc1ccccc1 | inconclusive: 10 µM [inhibitor, partial curve, poor fit] |
| COc1ccc(CNC(=O)CCCCCn2c(SCC#N)nc3cc4c(cc3c2=O)OCO4)cc1 | inconclusive: 56.2 µM [inhibitor, partial curve, poor fit] |
| O=C1COc2ccc(C(=O)COC(=O)COc3ccccc3[N+](=O)[O-])cc2N1 | inconclusive: 79.4 µM [inhibitor, partial curve, poor fit] |
| Cc1c(Cl)ccc2sc(NC(=O)C3CC3)nc12 | inconclusive: 11.2 µM [inhibitor, single point] |
| Cc1cccc(CNC(=O)Cc2csc3ccccc23)c1 | inconclusive: 89.1 µM [inhibitor, single point] |
| Cc1cccc(-c2n[nH]c(=S)n2/N=C/c2ccco2)c1 | inactive |
| O=C(NC(=S)Nc1ccc(C(F)(F)F)cc1)c1csnn1 | inconclusive: 15.8 µM [inhibitor, full curve, poor fit] |
| O=C(O)C1CCC(CNS(=O)(=O)c2ccc(Cl)cc2)CC1 (stereo not given) | inconclusive: 89.1 µM [inhibitor, single point] |
| N#Cc1ccc(COC(=O)CC(NC(N)=O)c2ccc(Cl)cc2)cc1 (stereo not given) | inactive |
| CCOc1cc2sc(N3CCC(C(=O)Nc4ccc(C(C)C)cc4)CC3)nc2cc1Br | inconclusive: 89.1 µM [inhibitor, single point] |
| Cc1ccc(S(=O)(=O)c2nc(-c3ccco3)oc2SC(C)C)cc1 | inconclusive: 17.8 µM [inhibitor, full curve] |
| Oc1ccc(CN2CCN(Cc3ccccc3)CC2)c2cccnc12 | inactive |
| O=C1C=C(c2ccccc2)C(c2ccccc2)C1O (stereo not given) | inactive |
| O=C(NCc1cccs1)c1nn(-c2ccccc2)nc1CO | inactive |
| COC(=O)Cc1[nH]nc2c1C(C1C=CCCC1)C(C#N)=C(N)O2 (stereo not given) | inconclusive: 1.12 µM [inhibitor, full curve, poor fit] |

Of the compounds above, 2 have a CF3 group.

| Structure (SMILES) | Potency |
| --- | --- |
| O=C(Nc1ccc(OC(F)(F)F)cc1)c1ccc2nccnc2c1 | inconclusive: 89.1 µM [inhibitor, partial curve, poor fit] |
| O=C(NC(=S)Nc1ccc(C(F)(F)F)cc1)c1csnn1 | inconclusive: 15.8 µM [inhibitor, full curve, poor fit] |
